{"sequences": {"note": "Sequences of proteins named here, by UniProt entry; tags and fusion partners are left off. Residues count along the entry.", "UniProt P17787, 26-502": "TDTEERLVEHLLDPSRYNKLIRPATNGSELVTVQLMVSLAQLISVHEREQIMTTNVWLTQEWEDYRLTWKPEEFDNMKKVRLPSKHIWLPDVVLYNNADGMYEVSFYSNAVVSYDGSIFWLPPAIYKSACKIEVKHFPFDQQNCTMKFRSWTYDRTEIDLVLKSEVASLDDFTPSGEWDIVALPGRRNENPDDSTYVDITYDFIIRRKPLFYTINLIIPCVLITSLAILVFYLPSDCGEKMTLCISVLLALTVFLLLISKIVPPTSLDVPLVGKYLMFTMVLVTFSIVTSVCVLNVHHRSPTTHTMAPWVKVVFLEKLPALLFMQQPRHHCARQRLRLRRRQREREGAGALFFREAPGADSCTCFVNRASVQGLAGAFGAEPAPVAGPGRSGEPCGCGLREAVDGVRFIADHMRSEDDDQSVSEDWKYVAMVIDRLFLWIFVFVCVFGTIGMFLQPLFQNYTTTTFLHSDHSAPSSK", "UniProt P43681, 29-627": "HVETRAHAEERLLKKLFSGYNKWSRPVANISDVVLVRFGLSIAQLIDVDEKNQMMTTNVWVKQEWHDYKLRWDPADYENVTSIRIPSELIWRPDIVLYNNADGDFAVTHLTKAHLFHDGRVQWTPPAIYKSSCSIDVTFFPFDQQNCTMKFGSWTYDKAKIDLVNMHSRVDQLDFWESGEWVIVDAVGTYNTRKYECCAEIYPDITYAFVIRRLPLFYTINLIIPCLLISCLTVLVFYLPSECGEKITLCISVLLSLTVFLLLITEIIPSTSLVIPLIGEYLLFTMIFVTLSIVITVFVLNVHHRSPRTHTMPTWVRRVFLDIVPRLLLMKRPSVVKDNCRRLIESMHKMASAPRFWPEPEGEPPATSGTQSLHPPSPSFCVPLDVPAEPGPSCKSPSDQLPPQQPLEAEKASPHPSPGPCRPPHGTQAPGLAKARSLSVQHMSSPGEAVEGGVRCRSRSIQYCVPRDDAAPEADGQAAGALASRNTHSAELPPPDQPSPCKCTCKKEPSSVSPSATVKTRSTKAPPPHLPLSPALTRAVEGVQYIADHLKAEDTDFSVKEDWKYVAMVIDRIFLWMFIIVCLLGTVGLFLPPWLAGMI"}, "source": "patent US20120196899A1", "about": "“METHODS AND PRODUCTS FOR TREATING INFLAMMATION” (Rock Creek Pharmaceuticals, Inc., priority 2010, published 2012)", "target": "T1, nAChR α4/β2 (Homo sapiens, UniProt P17787+P43681)", "T1 construct": "host or cells: HEK293 cells, transient transfection", "type": "cell-based", "details": "positive control, 100 μM Ach + 0.3 μM Epibatidine + 10 μM MLA", "note": "At least one compound was matched to its structure with a doubt left.", "data": [{"smiles": "CCN1C[C@]2(COC(=O)c3ccccc3N3C(=O)C[C@H](C)C3=O)CC[C@H](OC)[C@@]34[C@@H]5C[C@H]6[C@H](OC)[C@@H]5[C@](O)(C[C@@H]6OC)[C@](O)([C@@H](OC)[C@H]23)[C@@H]14", "note": "[MLA]", "values": [{"measurement": "Normalized Signals (inhibition)", "value": 100}]}]}
